Results from paper PMC8486878.
No constants are given. Whether binding was seen depends on the method and setting. In cells and extracts the contact can be indirect. Some binding calls cover weakened binding; strength is not graded here.

Protein sequences, listed by entry. Tags and fused reporters are not part of them. Lines headed by an entry give the natural chain unless they say otherwise; changes in a name come on top. Residues count along the entry.
UniProt P05161, residues 1-157: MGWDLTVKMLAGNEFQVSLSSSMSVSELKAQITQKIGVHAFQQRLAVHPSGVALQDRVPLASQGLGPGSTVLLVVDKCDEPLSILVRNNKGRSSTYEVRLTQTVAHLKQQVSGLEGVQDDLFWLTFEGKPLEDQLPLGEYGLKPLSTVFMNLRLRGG
UniProt P63165, residues 1-97: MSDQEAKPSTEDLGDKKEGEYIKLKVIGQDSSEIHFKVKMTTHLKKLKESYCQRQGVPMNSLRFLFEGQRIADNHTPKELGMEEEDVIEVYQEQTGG
UniProt Q63HN8: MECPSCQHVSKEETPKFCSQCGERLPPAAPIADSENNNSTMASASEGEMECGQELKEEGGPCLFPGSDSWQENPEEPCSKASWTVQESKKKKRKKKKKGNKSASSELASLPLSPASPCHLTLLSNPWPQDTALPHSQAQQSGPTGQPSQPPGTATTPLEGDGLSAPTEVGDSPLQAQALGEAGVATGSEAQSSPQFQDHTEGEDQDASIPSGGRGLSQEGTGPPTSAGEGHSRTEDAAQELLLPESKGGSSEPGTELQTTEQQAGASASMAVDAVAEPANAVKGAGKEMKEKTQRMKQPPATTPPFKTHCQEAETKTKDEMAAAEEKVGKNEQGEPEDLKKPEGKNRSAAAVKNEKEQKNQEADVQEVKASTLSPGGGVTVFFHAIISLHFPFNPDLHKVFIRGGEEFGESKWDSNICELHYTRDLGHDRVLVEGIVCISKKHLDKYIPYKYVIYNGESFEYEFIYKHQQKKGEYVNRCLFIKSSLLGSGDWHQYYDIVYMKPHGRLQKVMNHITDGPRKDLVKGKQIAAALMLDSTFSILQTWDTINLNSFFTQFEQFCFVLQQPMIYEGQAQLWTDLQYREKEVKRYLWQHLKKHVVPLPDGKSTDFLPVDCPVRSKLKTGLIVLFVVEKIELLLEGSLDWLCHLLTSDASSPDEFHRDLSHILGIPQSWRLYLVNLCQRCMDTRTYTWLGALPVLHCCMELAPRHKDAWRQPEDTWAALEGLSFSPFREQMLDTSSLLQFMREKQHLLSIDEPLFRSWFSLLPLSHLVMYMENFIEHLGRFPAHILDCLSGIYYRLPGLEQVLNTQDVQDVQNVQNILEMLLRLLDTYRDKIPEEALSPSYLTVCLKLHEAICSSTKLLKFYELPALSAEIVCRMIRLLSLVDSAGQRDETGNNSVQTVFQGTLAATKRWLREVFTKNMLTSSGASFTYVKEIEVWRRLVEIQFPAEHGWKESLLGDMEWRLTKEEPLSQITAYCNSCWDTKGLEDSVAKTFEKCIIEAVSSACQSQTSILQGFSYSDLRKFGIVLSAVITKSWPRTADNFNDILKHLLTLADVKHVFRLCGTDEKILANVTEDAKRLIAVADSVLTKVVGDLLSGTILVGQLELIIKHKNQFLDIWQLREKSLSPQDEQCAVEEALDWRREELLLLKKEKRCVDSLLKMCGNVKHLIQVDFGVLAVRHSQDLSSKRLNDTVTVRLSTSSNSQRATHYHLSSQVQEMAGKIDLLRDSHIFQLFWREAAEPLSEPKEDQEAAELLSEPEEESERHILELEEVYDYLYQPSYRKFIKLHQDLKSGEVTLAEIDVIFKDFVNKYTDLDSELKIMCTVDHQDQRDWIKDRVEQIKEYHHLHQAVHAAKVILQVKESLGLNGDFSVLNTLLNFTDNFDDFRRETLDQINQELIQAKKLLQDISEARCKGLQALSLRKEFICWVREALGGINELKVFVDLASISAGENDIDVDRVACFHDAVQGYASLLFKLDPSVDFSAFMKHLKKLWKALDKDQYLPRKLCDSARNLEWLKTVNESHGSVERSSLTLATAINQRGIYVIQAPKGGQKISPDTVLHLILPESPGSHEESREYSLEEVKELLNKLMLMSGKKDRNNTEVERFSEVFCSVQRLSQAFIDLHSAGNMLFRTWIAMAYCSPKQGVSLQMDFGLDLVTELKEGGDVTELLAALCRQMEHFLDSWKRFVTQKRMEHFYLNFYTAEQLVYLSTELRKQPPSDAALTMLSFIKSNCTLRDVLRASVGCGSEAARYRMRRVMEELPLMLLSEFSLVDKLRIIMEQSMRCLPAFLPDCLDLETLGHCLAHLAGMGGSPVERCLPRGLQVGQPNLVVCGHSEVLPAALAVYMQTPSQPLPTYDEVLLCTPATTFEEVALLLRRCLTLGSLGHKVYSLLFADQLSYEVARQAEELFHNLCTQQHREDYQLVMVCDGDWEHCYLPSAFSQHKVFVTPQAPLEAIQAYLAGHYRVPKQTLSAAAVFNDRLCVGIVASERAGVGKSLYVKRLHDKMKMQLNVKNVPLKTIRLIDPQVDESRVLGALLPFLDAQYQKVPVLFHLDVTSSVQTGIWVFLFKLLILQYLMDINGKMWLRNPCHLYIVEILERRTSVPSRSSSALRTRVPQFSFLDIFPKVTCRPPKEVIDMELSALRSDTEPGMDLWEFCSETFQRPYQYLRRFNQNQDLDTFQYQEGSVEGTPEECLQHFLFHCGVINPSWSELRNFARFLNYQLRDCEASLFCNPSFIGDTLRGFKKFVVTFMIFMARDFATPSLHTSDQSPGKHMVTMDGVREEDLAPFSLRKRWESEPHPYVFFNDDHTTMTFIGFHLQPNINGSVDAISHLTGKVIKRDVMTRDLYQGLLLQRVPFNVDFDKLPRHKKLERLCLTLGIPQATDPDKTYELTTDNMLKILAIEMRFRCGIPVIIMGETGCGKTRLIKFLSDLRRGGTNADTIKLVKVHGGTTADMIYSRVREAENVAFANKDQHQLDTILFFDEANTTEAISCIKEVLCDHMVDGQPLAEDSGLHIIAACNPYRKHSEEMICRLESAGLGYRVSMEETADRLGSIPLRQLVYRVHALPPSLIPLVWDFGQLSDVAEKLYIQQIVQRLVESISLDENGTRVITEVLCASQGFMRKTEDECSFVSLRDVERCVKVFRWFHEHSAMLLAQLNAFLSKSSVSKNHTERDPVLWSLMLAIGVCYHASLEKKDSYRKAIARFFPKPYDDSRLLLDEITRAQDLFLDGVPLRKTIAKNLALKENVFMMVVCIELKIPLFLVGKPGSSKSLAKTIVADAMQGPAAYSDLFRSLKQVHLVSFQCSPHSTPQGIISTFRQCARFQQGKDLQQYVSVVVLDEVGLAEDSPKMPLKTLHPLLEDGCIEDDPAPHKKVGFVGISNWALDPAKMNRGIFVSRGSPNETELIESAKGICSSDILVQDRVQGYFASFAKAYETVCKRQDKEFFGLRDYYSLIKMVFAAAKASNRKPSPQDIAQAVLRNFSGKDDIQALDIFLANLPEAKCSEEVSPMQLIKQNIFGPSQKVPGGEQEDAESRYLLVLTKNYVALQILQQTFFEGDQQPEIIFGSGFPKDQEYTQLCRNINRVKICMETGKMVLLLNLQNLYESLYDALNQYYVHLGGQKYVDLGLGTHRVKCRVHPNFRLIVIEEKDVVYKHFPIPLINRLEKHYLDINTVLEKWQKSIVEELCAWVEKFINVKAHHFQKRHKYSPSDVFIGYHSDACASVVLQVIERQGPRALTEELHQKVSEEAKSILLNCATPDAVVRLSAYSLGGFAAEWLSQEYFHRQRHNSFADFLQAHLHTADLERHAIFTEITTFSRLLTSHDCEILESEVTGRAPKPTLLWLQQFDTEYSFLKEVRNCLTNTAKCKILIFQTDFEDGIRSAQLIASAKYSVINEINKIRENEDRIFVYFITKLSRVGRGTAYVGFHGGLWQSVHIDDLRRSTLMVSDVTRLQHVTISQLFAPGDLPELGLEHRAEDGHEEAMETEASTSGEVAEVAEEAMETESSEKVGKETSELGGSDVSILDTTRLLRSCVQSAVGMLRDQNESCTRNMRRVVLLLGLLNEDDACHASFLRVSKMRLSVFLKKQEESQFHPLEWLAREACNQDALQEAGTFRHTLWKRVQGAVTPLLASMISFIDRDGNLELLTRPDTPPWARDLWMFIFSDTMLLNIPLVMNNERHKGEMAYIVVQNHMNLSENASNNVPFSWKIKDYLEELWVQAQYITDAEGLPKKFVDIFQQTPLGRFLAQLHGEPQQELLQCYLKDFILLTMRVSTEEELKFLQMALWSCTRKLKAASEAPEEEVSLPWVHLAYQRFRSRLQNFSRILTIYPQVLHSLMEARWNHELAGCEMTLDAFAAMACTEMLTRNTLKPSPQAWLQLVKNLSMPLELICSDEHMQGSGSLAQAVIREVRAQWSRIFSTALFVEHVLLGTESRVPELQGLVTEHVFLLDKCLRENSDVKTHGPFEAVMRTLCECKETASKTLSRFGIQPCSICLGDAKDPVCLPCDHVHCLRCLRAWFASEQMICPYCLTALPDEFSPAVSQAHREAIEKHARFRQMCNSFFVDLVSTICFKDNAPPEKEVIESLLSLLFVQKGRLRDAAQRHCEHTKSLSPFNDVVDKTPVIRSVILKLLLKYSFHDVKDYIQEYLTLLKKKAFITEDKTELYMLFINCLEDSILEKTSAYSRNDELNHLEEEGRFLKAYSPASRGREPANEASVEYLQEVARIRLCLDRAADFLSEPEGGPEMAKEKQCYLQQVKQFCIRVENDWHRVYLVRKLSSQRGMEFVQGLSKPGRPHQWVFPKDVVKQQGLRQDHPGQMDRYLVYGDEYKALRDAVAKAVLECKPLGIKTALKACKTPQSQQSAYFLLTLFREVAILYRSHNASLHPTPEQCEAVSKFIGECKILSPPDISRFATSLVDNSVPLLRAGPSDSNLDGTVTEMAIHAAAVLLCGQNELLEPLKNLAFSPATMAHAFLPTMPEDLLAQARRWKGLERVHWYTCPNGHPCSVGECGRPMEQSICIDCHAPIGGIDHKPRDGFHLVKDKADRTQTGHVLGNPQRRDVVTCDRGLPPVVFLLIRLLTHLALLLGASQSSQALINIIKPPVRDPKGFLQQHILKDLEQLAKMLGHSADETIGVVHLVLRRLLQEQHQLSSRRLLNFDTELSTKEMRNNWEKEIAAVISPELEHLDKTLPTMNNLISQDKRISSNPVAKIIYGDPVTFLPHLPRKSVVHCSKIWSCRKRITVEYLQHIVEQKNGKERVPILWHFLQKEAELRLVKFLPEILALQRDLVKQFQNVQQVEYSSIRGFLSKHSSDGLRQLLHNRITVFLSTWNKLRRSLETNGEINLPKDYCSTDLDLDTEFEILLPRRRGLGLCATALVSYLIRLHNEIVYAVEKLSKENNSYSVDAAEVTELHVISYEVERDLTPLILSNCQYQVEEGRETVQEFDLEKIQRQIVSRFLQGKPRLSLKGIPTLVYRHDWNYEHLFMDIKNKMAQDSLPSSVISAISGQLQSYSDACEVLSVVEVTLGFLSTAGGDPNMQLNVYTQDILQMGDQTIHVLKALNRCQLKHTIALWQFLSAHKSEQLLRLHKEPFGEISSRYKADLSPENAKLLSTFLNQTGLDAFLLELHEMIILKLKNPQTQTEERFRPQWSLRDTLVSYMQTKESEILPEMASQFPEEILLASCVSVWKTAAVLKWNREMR

What was measured:
GST-tagged ISG15 = GST-tagged ISG15 (UniProt P05161); assay: pull-down; GST-tagged UBL (ISG15, SUMO1 or ubiquitin) on magnetic glutathione beads mixed with a lysate of transfected HEK293T cells, overnight 4 °C, three washes in 50 mM Tris.HCl pH 8.0, 150 mM NaCl, 1% triton-x-100; immunoblot against FLAG and GST; only the target purified
GST-tagged-SUMO1 = GST-tagged-SUMO1 (UniProt P63165); assay: as above

Substance	binding (GST-tagged ISG15)	binding (GST-tagged-SUMO1)
3xFLAG-RNF213ΔC (from UniProt Q63HN8 1-3997) (domain or fragment)	binds	
full-length 3xFLAG-RNF213 (from UniProt Q63HN8 1-5207)		no binding
